Results taken from ChEMBL document CHEMBL3124930, “Synthesis of novel 5-(3-alkylquinolin-2-yl)-3-aryl isoxazole derivatives and their cytotoxic activity” (Bioorg Med Chem Lett, 2014).

System: A549
Assay: Cytotoxicity against human A549 cells assessed as growth inhibition after 24 hrs by MTT assay
Type: functional, cell-based
Settings: A549, 24 h

SMILES: COc1cccc2c1C(=O)c1c(O)c3c(c(O)c1C2=O)C[C@@](O)(C(=O)CO)C[C@@H]3O[C@H]1C[C@H](N)[C@H](O)[C@H](C)O1 [DOXORUBICIN]
- IC50: 800 nM
